Measurements reported in article PMC1978535.
No constants are given. Whether binding was seen depends on the method and setting. Binding seen in cells or lysates may run through a third protein. Some entries that bind do so weakly or less than the wild type. Sequences can lack the tags named with a protein.

Target: HERG with the c-myc immunoepitope engineered onto the C-terminus (UniProt Q12809)
Experiment: co-IP; HERG-myc precipitated with polyclonal anti-myc antibody and protein-G-agarose from cleared lysates (NDET buffer: 1% NP-40, 0.4% deoxycholate, 5 mM EDTA, 25 mM Tris-HCl pH 7.5, 150 mM NaCl) of HERG-HEK cells transfected with FLAG-KCNE plasmids; room temperature; KCNE detected by anti-FLAG immunoblot; cells untreated or treated with Brefeldin A (3 ng/ml, 36 hours)

Row | Molecule | binding
1 | N-terminal FLAG-tagged wild type KCNE1 (from UniProt P15382 1-129) | binds
2 | N-terminal FLAG-tagged wild type KCNE2 (protein, UniProt Q9Y6J6 1-123) MSTLSNFTQTLEDVFRRIFITYMDNWRQNTTAEQEALQAKVDAENFYYVILYLMVMIGMFSFIIVAILVSTVKSKRREHSNDPYHQYIVEDWQEKYKSQILNLEESKATIHENIGAAGFKMSP | binds
